Measurements as given in PubChem BioAssay AID2685 (National Center for Advancing Translational Sciences (NCATS), 2010).
The other results are listed elsewhere or left out. Further columns of the screen follow, without active or inactive calls. Compounds called inactive in the main read-out are mostly missing here. The note in brackets gives the kind of curve behind each potency; many fits are weak.

Test: qHTS Assay for Lipid Storage Modulators in Drosophila S3 Cells;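 on cell number change: cells counted by Cell Tracker Red CMTPX staining in the red channel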
Conditions: BODIPY lipid droplet fluorescence, 18-24 h; for cell number change: measured here: cell count max response, cells fed with added oleic acid
Outline: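 Drosophila S3 cells loaded with oleic acid (400 uM, as added) and compounds at several concentrations; lipid droplets imaged by 488-nm laser-scanning cytometry, 500–530 nm intensity and object ratio to cell channel. Percent activity normalized to 20 uM Triacsin C.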

[1] = measured here: cell number channel AC50, cells fed with added oleic acid
[2] = measured here: lipid fluorescence (Fed channel) AC50, cells fed with added oleic acid

SMILES	cell number change	AC50 [1]	AC50 [2]
CCc1ccc(NC(=O)C2CCCCC2C(=O)O)cc1 (stereo not given)	-5.29%	0.731 µM [falling, full curve]	–
O=C(Oc1ccc(Cl)c2cccnc12)c1ccco1	-19.6%	2.06 µM [falling, single point]	–
COC(=O)c1cc(OC)c(OC)cc1NC(=O)Nc1ccc(OC)cc1OC	3.44%	–	0.58 µM [rising, partial curve]
CC(c1ccccc1)N1C(=O)c2ccc(C(=O)NCc3cccnc3)cc2C1=O (stereo not given)	3.14%	–	–
CCOc1ccc(C(=O)N2CCN(c3ccccc3)CC2)cc1OCC	–	0.146 µM [rising, full curve, poor fit]	–
COC(=O)C1=C(C)N(c2ccc(Cl)cc2)/C(=C/c2cccs2)C1=O	130%	3.26 µM [rising, full curve]	29.1 µM [rising, partial curve]
CCOc1ccc(C(=O)CCC(=O)NC2=NCCS2)cc1	-9.89%	–	0.13 µM [falling, full curve, poor fit]
COc1ccc2c(=O)c(-c3nc(C)cs3)coc2c1	–	–	4.11 µM [rising, single point]
CC(=O)Nc1ccc(S(=O)(=O)N2C3CCCC2CC(NC(=O)C2CCCCC2)C3)cc1 (stereo not given)	-3.63%	–	–
COc1ccc(/C(C)=N/NC(=O)CNC(=O)/C=C/c2ccccc2OC)cc1	15.3%	–	–
CCOC(=O)N1CCN(S(=O)(=O)c2c(C)nc3sccn3c2=O)CC1	–	–	1.64 µM [falling, partial curve, poor fit]
Cc1onc(-c2c(Cl)cccc2Cl)c1C(=O)N/N=C(\N)COc1ccc(Cl)cc1	-57.5%	29.1 µM [falling, single point]	29.1 µM [falling, single point]
Cc1ccc(S(=O)(=O)N(CC(O)CN2C(=O)NC(C)(C)C2=O)c2cccc(C)c2)cc1 (stereo not given)	14%	1.46 µM [rising, partial curve, poor fit]	–
Cc1ccc(C(=O)NCC(=O)N2CCN(c3ncccn3)CC2)s1	74.1%	18.4 µM [rising, partial curve]	0.291 µM [rising, full curve]
O=C(CN1C(=O)NC2(CCc3ccccc3C2)C1=O)NCC(F)(F)F (stereo not given)	6.94%	–	–
CC12CCC(C(=O)N3CCC(Cc4ccccc4)CC3)(C(=O)C1=O)C2(C)C (stereo not given)	28.5%	–	18.4 µM [rising, single point]
CCOC(=O)c1ccccc1N/C=C1\CCCC1=O	-27.8%	–	–
COc1ccc(-n2c(SCCC(=O)O)nnc2-c2ccncc2)cc1	62.2%	7.31 µM [rising, partial curve]	3.66 µM [rising, single point]
Cc1ccc(OCC(=O)NCc2cccs2)c([N+](=O)[O-])n1	–	4.11 µM [falling, single point]	4.61 µM [falling, single point]

Part of the list above, in CSV form.
SMILES,cell number change,AC50 [1],AC50 [2]
Cc1ccc(C(=O)NCC(=O)N2CCN(c3ncccn3)CC2)s1,74.1%,"18.4 µM [rising, partial curve]","0.291 µM [rising, full curve]"
O=C(CN1C(=O)NC2(CCc3ccccc3C2)C1=O)NCC(F)(F)F (stereo not given),6.94%,–,–

(cont.)

SMILES	cell number change	AC50 [1]	AC50 [2]
COc1ccc(OC)c(CNC(=O)CCc2nc(-c3cccs3)no2)c1	4.47%	6.51 µM [rising, single point]	4.11 µM [rising, full curve]
O=C(/C=C/c1ccc(S(=O)(=O)N2CCOCC2)cc1)N1CCN(c2ccc(F)cc2)CC1	-18.4%	–	–
Cc1occc1-c1nnc(SCC(=O)c2ccc(F)cc2)n1Cc1ccco1	-5.32%	–	18.4 µM [rising, single point]
CCOC(=O)c1nnn(-c2nonc2N)c1-c1ccc(OC)cc1	75.3%	8.2 µM [rising, partial curve]	5.17 µM [rising, partial curve]
Cc1ccc(S(=O)(=O)N(C)c2ccc(C(=O)Nc3cccc(C)n3)cc2)cc1	-15.8%	–	–
Cc1ccc(CSc2nnc(-c3ccccc3N)c(=O)[nH]2)cc1	–	6.51 µM [rising, single point]	–
COc1ccc(OC)c(C(=O)COC(=O)C2CC3CCCC(C2)C3=O)c1 (stereo not given)	-56.7%	29.1 µM [falling, single point]	2.59 µM [falling, partial curve]
Cc1cc(C)nc(Nc2n[nH]c(-c3ccccc3C)n2)n1	13.4%	–	–
O=C(CSc1nc(Nc2ccccc2)nc(N2CCOCC2)n1)Nc1cccc([N+](=O)[O-])c1	-3.47%	–	0.411 µM [rising, partial curve]
O=C(COc1ccc(Cl)cc1)NCC(=O)N1CCC2(CC1)NCCc1[nH]cnc12	39.6%	23.1 µM [rising, single point]	–
Cc1ccc(-c2nn(CCC(=O)O)cc2CCC(=O)O)cc1	1.84%	0.0058 µM [falling, full curve, poor fit]	1.16 µM [falling, full curve]
COc1ccc(S(=O)(=O)Nc2ccc3c(c2)OCO3)cc1C	123%	3.66 µM [rising, partial curve]	7.31 µM [rising, partial curve]
CCOC(=O)c1cc2c(ccn2-c2ccc(F)cc2)n1CC(=O)NC(C)(C)C	-66.7%	2.31 µM [falling, full curve]	1.84 µM [falling, full curve]
Cc1cc(N)c2cc(NC(=O)/C=C/c3ccccc3Cl)ccc2n1	-47%	23.1 µM [falling, single point]	18.4 µM [falling, single point]
CCc1ccccc1NC(=O)C1CCN(C(=O)N2CCOc3ccccc32)CC1	35.4%	1.3 µM [rising, full curve, poor fit]	29.1 µM [rising, single point]
Cc1cc2ncn(C(=O)N3CCOCC3)c2cc1C	-138%	29.1 µM [falling, partial curve]	18.4 µM [falling, partial curve]
CCCCNC(=O)C1CCN(Cc2ccccn2)CC1	-4.61%	–	5.8 µM [rising, single point]
COc1ccc(CNC(=O)CCNC(=O)c2ccco2)cc1OC	-2.5%	0.103 µM [falling, full curve, poor fit]	–
